This passage reports AC50 results from PubChem BioAssay AID1487 (National Center for Advancing Translational Sciences (NCATS), 2009).

The nature of this assay: qHTS Assay for Modulators of Lamin A Splicing. The settings on record: HeLa LMNA splicing GFP/RFP minigene ratio, 48 h. The essentials:
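Read-out is the ratio of GFP to DsRed2 object intensity, acquired by 488 nm laser-scanning cytometry on HeLa lamin A-EGFP minigene reporter cells. Compound incubation 48 hrs at 37 °C in Opti-MEM with 2% FBS; DMSO 0.5% final.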
In general terms: In qHTS, concentration-response curves come from the screen itself.

The mark [1] stands for this setting: measured here: GFP splicing reporter channel.
[2] abbreviates: measured here: RFP viability control channel.

As usually defined, the AC50 is the concentration giving half of the maximal activity seen.

Values joined by “and” are separate entries in the source; they are usually repeats but may differ in a detail not shown here. Equal values may be shown once. The list shows a part of the results. Further columns of the screen follow, without active or inactive calls. Compounds called inactive in the main read-out are mostly missing here. Potencies come from curve fits of mixed quality, noted in brackets.

As to `CCCCCCCCNC(=O)CCNC(=O)c1ccc(C(C)(C)C)cc1`, under setting [1], the AC50 is 12.6 µM [rising, single point].

For the molecule `Cc1nc2c(C)cccc2cc1C(=O)N/N=C/c1cccc([N+](=O)[O-])c1`, the AC50 under setting [2] was 35.5 µM [rising, single point].

Turning to `O=C(CN1CCN(c2ccccn2)CC1)Nc1ccc2ccccc2c1`, the AC50 under setting [2] was 12.6 µM [rising, single point].

Consider `OC1CCCN(Cc2ccc3ccc4cccc5ccc2c3c45)C1` (stereo not given), for which, under setting [1], the AC50 was 35.5 µM [falling, single point].

Consider `COc1ccc(C(=O)Nc2nc(-c3cccs3)cs2)cc1`, for which the concentration at half-maximal activity (AC50) runs as follows: under setting [1], 11.2 µM [rising, partial curve]; under setting [2], 14.1 µM [rising, partial curve].

On to `Cc1ccc(Cl)cc1NC(=O)CSc1nc2ccccc2c2nc(-c3ccccc3)nn12`, for which the concentration at half-maximal activity (AC50) under setting [2] is 10 µM [rising, partial curve, poor fit].

As for `COc1cc(OC)c(-c2nn3c(-c4ccncc4)nnc3s2)cc1OC`, the AC50 under setting [2] is 12.6 µM [rising, single point].

On to `CCN(CC)S(=O)(=O)c1ccc(Oc2ccccc2)cc1`, for which the AC50 under setting [2] is 14.1 µM [rising, single point].

Regarding `Cc1nc2sc3c(c2c(=O)n1N)CCC3`, under setting [1], the AC50 was 0.00316 µM [falling, full curve, poor fit].

As to `Cc1ccc(N/C(C(Cl)=C(Cl)Cl)=C(/Cl)[N+](=O)[O-])c(C)c1`, the half-maximal activity concentration (AC50) by setting is: under setting [1], 12.6 µM [rising, partial curve]; under setting [2], 15.8 µM [rising, partial curve].

`O=S(=O)(NCC(c1cccnc1)N1CCN(c2ccc(F)cc2)CC1)c1ccc(F)cc1` (stereo not given): under setting [2], the half-maximal activity concentration (AC50) was 5.62 µM [rising, partial curve, poor fit].

`O=C(NCC(c1cccs1)N1CCOCC1)c1ccccc1NS(=O)(=O)c1cc([N+](=O)[O-])ccc1Cl` (stereo not given): under setting [2], the AC50 was 35.5 µM [rising, single point].

Take `N#CC1=C(N)Oc2cc(N)ccc2C1C1CC=CCC1` (stereo not given): the AC50 under setting [2] is 12.6 µM [rising, single point].

With `C=C(C(=O)c1ccccc1)C(C)C(=C)C(=O)c1ccccc1`, the AC50 under setting [2] was 3.55 µM [rising, full curve, poor fit].

As to `COc1cc(CNCc2ccncc2)cc(Br)c1OCc1ccccc1F`, the AC50 under setting [1] was 3.16 µM [rising, single point] and the AC50 under setting [2] was 3.98 µM [rising, full curve].

For `S=c1ccss1`, the AC50 by setting is: under setting [1], 3.55 µM [falling, single point]; under setting [2], 11.2 µM [falling, partial curve, poor fit].

For the molecule `CCCCNc1nc2ccccc2n1CC(=O)Nc1c(C)cccc1CC`, the half-maximal activity concentration (AC50) under setting [1] was 0.01 µM [rising, full curve, poor fit].

`CC(=O)Sc1nc(-c2ccccc2)[nH]c1S(=O)(=O)c1ccc(C)cc1`: the AC50 under setting [1] was 11.2 µM [falling, partial curve].

As to `O=C1CN(/N=C/c2ccc([N+](=O)[O-])o2)C(=O)N1`, the AC50 reads like this: under setting [1], 35.5 µM [falling, single point] and 11.2 µM [rising, partial curve, poor fit]; under setting [2], 1 µM [falling, single point] and 14.1 µM [rising, partial curve].

With `O=C(N/N=C/c1ccc([N+](=O)[O-])s1)C(O)c1ccccc1` (stereo not given), the half-maximal activity concentration (AC50) under setting [2] was 31.6 µM [rising, single point].

With `CCCCc1sc(-c2c(C#N)c(N)nc3c2CCCCC3)cc1[N+](=O)[O-]`, the half-maximal activity concentration (AC50) under setting [1] was 3.98 µM [rising, full curve].

Take `CS(=O)(=O)c1ccc(C(=O)OCC(=O)NC(=O)C2CCCCC2)cc1[N+](=O)[O-]`: under setting [2], the half-maximal activity concentration (AC50) is 35.5 µM [falling, partial curve].

For the molecule `NC(N)=NC(=O)c1nc(Cl)c(N2CCCCCC2)nc1N`, the AC50 is 4.47 µM [falling, full curve, poor fit] under setting [1] and 4.47 µM [falling, full curve, poor fit] under setting [2].

Take `O=C(NN1C(=O)C2C(c3ccccc3)C=CC(c3ccccc3)C2C1=O)c1cccc(Br)c1` (stereo not given): the AC50 under setting [1] was 14.1 µM [rising, single point] and the AC50 under setting [2] was 15.8 µM [rising, single point].

Regarding `Cc1cc(C(=O)CSc2ccc3c(c2)OCCO3)c(C)n1C1CC1`, the half-maximal activity concentration (AC50) was 22.4 µM [rising, single point] under setting [1] and 35.5 µM [rising, single point] under setting [2].

For `Cc1ccc(NC(=O)C2CC(=O)n3ncnc3N2)cc1C` (stereo not given), the AC50 was 11.2 µM [falling, partial curve] under setting [1] and 3.16 µM [falling, full curve] under setting [2].

Regarding `Cc1ccc(/C=C2\SC(=S)N(c3cccnc3)C2=O)cc1`, the AC50 under setting [1] is 3.16 µM [falling, partial curve, poor fit].

For `COc1ccc2c(c1)O[C@@H](c1cccc(C(F)(F)F)c1)[C@H](OC(=O)N[C@H]1CCCc3ccccc31)C2=O`, the half-maximal activity concentration (AC50) under setting [2] is 14.1 µM [rising, partial curve].

On to `Cn1cc(C(=O)N/N=C/C(Br)=C/c2ccccc2)ccc1=O`, for which, under setting [2], the AC50 was 7.08 µM [rising, partial curve, poor fit].

As to `O=C(Cc1ccc(S(=O)(=O)N2CCOCC2)s1)Nc1ccc2c(c1)CCC2`, under setting [2], the AC50 is 25.1 µM [rising, single point].

With `C=CCN1C(=O)C2C(C(=O)NC3CCCCC3)C3C=CC2(O3)C1C(=O)NC1CCCC1` (stereo not given), the AC50 by setting is: under setting [1], 0.794 µM [falling, full curve, poor fit]; under setting [2], 0.794 µM [falling, full curve, poor fit].

As for `CCCC(=O)Nc1sc(C(=O)Nc2cccc(N)c2)c(C)c1C(=O)OC`, the half-maximal activity concentration (AC50) was 0.0316 µM [rising, full curve, poor fit] under setting [1] and 0.0631 µM [rising, full curve, poor fit] under setting [2].

With `COc1cccc(COCC(O)Cn2cnc3cc(C)c(C)cc32)c1` (stereo not given), the AC50 under setting [1] is 17.8 µM [falling, partial curve, poor fit].

Take `Cn1ncc(Br)c1C(=O)NC1C2CC3CC(C2)CC1C3` (stereo not given): the half-maximal activity concentration (AC50) is 3.16 µM [rising, partial curve, poor fit] under setting [1] and 14.1 µM [rising, single point] under setting [2].

With `C=CCNC(=O)/C(C#N)=C/c1cc(Br)ccc1OC`, the concentration at half-maximal activity (AC50) is, setting by setting: under setting [1], 22.4 µM [falling, single point]; under setting [2], 12.6 µM [falling, partial curve].

As to `Cc1ccc(OCc2nnc(SCc3nc4ccccc4[nH]3)n2Cc2ccco2)cc1`, the AC50 under setting [2] is 6.31 µM [rising, full curve].

For `Cc1cc(C(=O)c2ccc(Cl)cc2)c(NC(=O)CCl)s1`, the half-maximal activity concentration (AC50) under setting [1] is 17.8 µM [falling, single point] and the AC50 under setting [2] is 25.1 µM [falling, single point].

Consider `O=C(Nc1ccc(O)c(-c2nc3ccccc3s2)c1)c1cccs1`, for which the half-maximal activity concentration (AC50) was 3.55 µM [rising, partial curve] under setting [1] and 0.631 µM [rising, partial curve] under setting [2].

As to `COc1ccc(CCC(=O)NCc2ccc3c(c2)CCN3C(=O)c2ccccc2)cc1`, under setting [1], the concentration at half-maximal activity (AC50) is 2.51 µM [falling, partial curve, poor fit].

In the case of `COc1ccc2[nH]cc(CCNc3ccnc(-c4cccnc4)n3)c2c1`, the half-maximal activity concentration (AC50) under setting [1] was 12.6 µM [falling, partial curve].

Turning to `Oc1[nH]c2c(Cl)cc(Cl)cc2c1N=NC(=S)NCC1CCCO1` (stereo not given), the AC50 by setting is: under setting [1], 7.08 µM [rising, full curve, poor fit]; under setting [2], 10 µM [rising, partial curve].

On to `Cc1ccc(-c2nn(-c3ccccc3)cc2/C=C/C(=O)OCC(=O)NC2CC2)o1`, for which the half-maximal activity concentration (AC50) reads like this: under setting [1], 3.16 µM [falling, partial curve]; under setting [2], 0.631 µM [falling, full curve].

As to `CCOc1ccc(C(=O)N2CCN(c3cccc(C)c3C)CC2)cc1`, the AC50 under setting [1] was 14.1 µM [rising, partial curve] and the AC50 under setting [2] is 17.8 µM [rising, partial curve].

For the molecule `O=C(Nc1cccc(S(=O)(=O)N2CCOCC2)c1)c1ccc(N2CCOCC2)c([N+](=O)[O-])c1`, the AC50 under setting [2] was 5.62 µM [rising, single point].

With `CC1CCCC(NC(=O)c2ccc(CNc3c(N4CCCC4)c(=O)c3=O)cc2)C1C` (stereo not given), the half-maximal activity concentration (AC50) under setting [2] was 14.1 µM [rising, partial curve, poor fit].

Regarding `Cc1cnc(NC(=O)CN2CCN(c3ccccn3)CC2)s1`, the AC50 reads like this: under setting [1], 35.5 µM [falling, single point]; under setting [2], 35.5 µM [falling, single point].

Consider `CCOC(=O)c1[nH]c(C)c(C(=O)Nc2ccc(C)cc2C)c1C`, for which the AC50 under setting [2] is 6.31 µM [rising, full curve].

With `COc1ccc(/C=C(\NC(=O)c2ccc(OCC(C)C)cc2)C(=O)OCc2ccco2)cc1`, the concentration at half-maximal activity (AC50) under setting [2] was 3.98 µM [rising, full curve, poor fit].

For `CN=C(NC#N)Nc1ccc(C2=NNC(=O)CC2C)cc1` (stereo not given), under setting [2], the AC50 was 10 µM [rising, partial curve, poor fit].

Take `CC(C)c1nc2ccc(C(=O)NCCCN3CCN(c4cccc(Cl)c4)CC3)cc2o1`: the half-maximal activity concentration (AC50) runs as follows: under setting [1], 35.5 µM [falling, partial curve]; under setting [2], 35.5 µM [falling, partial curve, poor fit].

As for `Cc1ccc(/C=C2\SC(N3CCN(C(c4ccccc4)c4ccccc4)CC3)=NC2=O)o1`, the AC50 under setting [1] was 1.41 µM [falling, full curve, poor fit] and the half-maximal activity concentration (AC50) under setting [2] was 3.16 µM [falling, partial curve].

`c1cnc(N2CCN(c3ncnc4c3oc3ccccc34)CC2)nc1`: the concentration at half-maximal activity (AC50) under setting [2] was 17.8 µM [rising, partial curve].

Take `COC(=O)c1c(N2C(=O)Nc3ccccc3N2O)sc2c1CCCC2`: the half-maximal activity concentration (AC50) under setting [2] is 14.1 µM [rising, single point].

`CCOC(=O)C1CCC(CN(Cc2ccc(Cl)cc2)S(=O)(=O)c2cc(Cl)cc(Cl)c2)CC1` (stereo not given): the AC50 under setting [2] was 3.98 µM [rising, single point].
